According to patent publication US20090018101:
Construct, isoform or probe ends are uncertain for at least one entry.

Tested on: M.BcnIB (DNA cytosine-N4 methyltransferase)
Assay: activity assay
Conditions: N4-dC group transfer by HPLC/ESI-MS with cofactors 3 and 5, not 4 or 6; 37 C, EDTA; purified recombinant protein

CATTACGCGCCGGGTCCTGGCTAT (double strand) [duplex III.IV (= V.VI)]
activity on this sequence: active
